{"source": "PubChem BioAssay AID248", "about": "(DTP/NCI, 2004)", "system": "L1210 leukemia ip in BDF1 mice, survival T/C", "test": "NCI In Vivo Anticancer Drug Screen. Data for tumor model L1210 Leukemia (intraperitoneal) in B6D2F1 (BDF1) mice", "conditions": "T/C endpoint: mean survival time, higher T/C = longer survival", "key": {"[1]": {"conditions": "dose: 200.0 mg/kg/injection, schedule: Q01DX009 (ip), vehicle: Klucel (hydroxypropylcellulose) (HPC)"}, "[2]": {"conditions": "dose: 400.0 mg/kg/injection, schedule: Q01DX009 (ip), vehicle: Klucel (hydroxypropylcellulose) (HPC)"}, "[3]": {"conditions": "dose: 200.0 mg/kg/injection, schedule: Q01DX001 (ip), vehicle: saline"}, "[4]": {"conditions": "dose: 400.0 mg/kg/injection, schedule: Q01DX001 (ip), vehicle: saline"}}, "note": "The list does not hold the whole screen: it gathers tests that were run many times, whatever their T/C, doses with no T/C, and many T/C values between a quarter and a half above the control. Other doses and runs of a compound stand elsewhere. T/C gives the treated animals as a percentage of the vehicle group. Some entries give survivors of the animals treated and no T/C: the source files T/C as zero there, which appears to mark a toxic dose or a test without result, not a measured value. Some doses without a T/C left all or most animals alive at the check, yet need not have been tolerated: survival well below the control is almost never listed, so the zero probably covers shortened survival too. Survivors were counted at the toxicity check, usually on the fifth day, unless a day is given; later deaths do not show. Schedules are NCI's codes, read here as Q, the interval in days (D) or hours (H), X, the number of doses. Some schedule codes hold Z or #, which are not explained here. Where survival is the endpoint, the PubChem record calls one and a half times the control and up active, and a quarter to a half above the control has no call in these data; cut-offs in other NCI protocols can differ. Some T/C values carry the count of animals alive at the toxicity check (mostly the fifth day); where none is given, no animal had died by that day.", "data": [{"molecule": "COC(/C=C\\C(OC)OC)OC", "values": [{"measurement": "survivor count", "setting": "dose: 100.0 mg/kg/injection, schedule: Q04DX003 (ip), vehicle: alcohol", "value": "6 of 6"}, {"measurement": "survivor count", "setting": "dose: 200.0 mg/kg/injection, schedule: Q04DX003 (ip), vehicle: alcohol", "value": "3 of 6"}, {"measurement": "survivor count", "setting": "dose: 400.0 mg/kg/injection, schedule: Q04DX003 (ip), vehicle: alcohol", "value": "0 of 6"}]}, {"molecule": "CCC(=O)c1ccc(NC(=S)Nc2ccccc2)cc1", "values": [{"measurement": "survivor count", "setting": "dose: 160.0 mg/kg/injection, schedule: Q01DX009 (ip), vehicle: saline with Tween-80", "value": "6 of 6"}]}, {"molecule": "O=CNC1CCCCC1", "values": [{"measurement": "survivor count", "setting": "dose: 160.0 mg/kg/injection, schedule: Q01DX001 (ip), vehicle: saline with Tween-80", "value": "1 of 6"}]}, {"molecule": "CN1C2CCC1CC(OC(=O)c1ccccc1)C2", "note": "(stereo unspecified)", "values": [{"measurement": "survivor count", "setting": "dose: 200.0 mg/kg/injection, schedule: Q04DX002 (ip), vehicle: saline with Tween-80", "value": "3 of 6"}]}, {"molecule": "CC1(C)NC(=O)C(/C=C/c2ccccc2)O1", "note": "(stereo unspecified)", "values": [{"measurement": "survivor count", "setting": "[1]", "value": "6 of 6"}, {"measurement": "survivor count", "setting": "[2]", "value": "4 of 6"}]}, {"molecule": "C=C(Cl)CNN1CCOCC1", "values": [{"measurement": "survivor count", "setting": "dose: 400.0 mg/kg/injection, schedule: Q04DX003 (ip), vehicle: saline with Tween-80", "value": "0 of 6"}]}, {"molecule": "CCCCC[As](=O)(O)CCCCC", "values": [{"measurement": "T/C", "setting": "dose: 20.0 mg/kg/injection, schedule: Q01DX001 (ip), vehicle: saline", "value": "126 % of control [3 of 4 alive]"}, {"measurement": "survivor count", "setting": "dose: 50.0 mg/kg/injection, schedule: Q01DX001 (ip), vehicle: saline", "value": "1 of 4"}, {"measurement": "survivor count", "setting": "dose: 80.0 mg/kg/injection, schedule: Q01DX001 (ip), vehicle: saline", "value": "0 of 4"}, {"measurement": "survivor count", "setting": "[3]", "value": "0 of 4"}, {"measurement": "survivor count", "setting": "[4]", "value": "0 of 4"}]}, {"molecule": "C(=C\\c1ccc(C2=NCCN2)cc1)/c1ccc(C2=NCCN2)cc1", "values": [{"measurement": "survivor count", "setting": "dose: 92.0 mg/kg/injection, schedule: Q01DX Z (ip), vehicle: carboxymethylcellulose (CMC)", "value": "3 of 6"}]}, {"molecule": "O=C1OC(=O)C2C3C=CC(C3)C12", "note": "(stereo unspecified)", "values": [{"measurement": "survivor count", "setting": "[1]", "value": "3 of 6"}, {"measurement": "survivor count", "setting": "[2]", "value": "0 of 6"}, {"measurement": "survivor count", "setting": "dose: 400.0 mg/kg/injection, schedule: Q04DX003 (ip), vehicle: Klucel (hydroxypropylcellulose) (HPC)", "value": "6 of 6"}]}, {"molecule": "CCCCCc1cc[n+](CC(=O)c2ccccc2)cc1", "values": [{"measurement": "survivor count", "setting": "dose: 50.0 mg/kg/injection, schedule: Q04DX003 (ip), vehicle: saline", "value": "6 of 6"}, {"measurement": "survivor count", "setting": "[3]", "value": "0 of 6"}, {"measurement": "survivor count", "setting": "[4]", "value": "0 of 6"}]}, {"molecule": "O=C(Nc1cccc(C2=NCCN2)c1)c1cccc(C(=O)Nc2cccc(C3=NCCN3)c2)c1", "values": [{"measurement": "survivor count", "setting": "dose: 125.0 mg/kg/injection, schedule: Q01DX Z (ip), vehicle: carboxymethylcellulose (CMC)", "value": "2 of 6"}, {"measurement": "survivor count", "setting": "dose: 250.0 mg/kg/injection, schedule: Q01DX Z (ip), vehicle: carboxymethylcellulose (CMC)", "value": "0 of 6"}]}, {"molecule": "CC(C)(C)SCC#CCSC(C)(C)C", "values": [{"measurement": "survivor count", "setting": "dose: 400.0 mg/kg/injection, schedule: Q04DX002 (ip), vehicle: saline with Tween-80", "value": "3 of 3"}]}, {"molecule": "CC(C)C1(Cc2ccccc2)C(=O)NC(=S)NC1=O", "values": [{"measurement": "survivor count", "setting": "dose: 300.0 mg/kg/injection, schedule: Q01DX001 (ip), vehicle: saline", "value": "3 of 6"}]}, {"molecule": "O=P(O)(CO)CO", "values": [{"measurement": "survivor count", "setting": "dose: 400.0 mg/kg/injection, schedule: Q04DX003 (ip), vehicle: saline", "value": "2 of 6"}]}]}
